Construct, isoform or probe ends are uncertain for at least one entry. Weaker means in comparison with the reference protein, sequence or condition of that experiment.
Target: DrLigA (Deinococcus radiodurans) (UniProt Q9RSQ5)
Assay: EMSA
Details: 5 mM MgSO4, 5 mM MnSO4, 300 µM NAD+, 100 nM DNA, weak at 10-fold protein, none, 5' end of flap not phosphorylated, 20 mM Bis-Tris pH 6.0, 5 mM MgSO4, 5 mM MnSO4, 300 µM NAD+, 25% glycerol, 15 min at room temperature, 6% PAGE, 1x TBE, 4 °C, recombinant protein, protein details: N-terminal His6-TEV, tag cleaved, label: 5'-FAM on F1 (S9)

## ATTGAGTGGACAAAGTATCGTAGGGTAGTATTGGTGGATA / TATCCACCAATACTACCCTA / TAACGCTGGGCGATACTTTGTCCACTCAAT
  binding result: binds more weakly
